The supplement of paper PMC10849652
The other results are listed elsewhere or left out.

The chains behind the UniProt entries cited, without tags or fusion partners. Where a name states a change or a piece, a line headed by the entry shows the natural chain unless it says otherwise.
UniProt Q9UNQ2: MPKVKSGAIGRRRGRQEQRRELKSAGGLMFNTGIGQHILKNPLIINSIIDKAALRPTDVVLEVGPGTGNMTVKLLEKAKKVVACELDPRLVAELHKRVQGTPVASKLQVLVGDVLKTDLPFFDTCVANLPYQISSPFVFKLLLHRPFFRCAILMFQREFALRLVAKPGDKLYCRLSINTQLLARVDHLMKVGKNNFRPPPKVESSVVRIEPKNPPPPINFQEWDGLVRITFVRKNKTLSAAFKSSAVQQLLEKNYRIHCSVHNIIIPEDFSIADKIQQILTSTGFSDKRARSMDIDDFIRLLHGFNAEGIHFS
UniProt O00273: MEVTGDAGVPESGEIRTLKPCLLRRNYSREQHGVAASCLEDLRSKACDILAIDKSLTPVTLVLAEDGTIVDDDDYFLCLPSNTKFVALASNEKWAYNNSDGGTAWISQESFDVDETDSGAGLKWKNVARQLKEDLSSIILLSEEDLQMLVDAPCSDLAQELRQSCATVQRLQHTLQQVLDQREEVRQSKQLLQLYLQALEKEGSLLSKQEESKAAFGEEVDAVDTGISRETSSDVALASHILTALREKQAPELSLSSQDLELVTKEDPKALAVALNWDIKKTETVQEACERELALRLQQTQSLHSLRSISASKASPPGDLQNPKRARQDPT
UniProt Q92841: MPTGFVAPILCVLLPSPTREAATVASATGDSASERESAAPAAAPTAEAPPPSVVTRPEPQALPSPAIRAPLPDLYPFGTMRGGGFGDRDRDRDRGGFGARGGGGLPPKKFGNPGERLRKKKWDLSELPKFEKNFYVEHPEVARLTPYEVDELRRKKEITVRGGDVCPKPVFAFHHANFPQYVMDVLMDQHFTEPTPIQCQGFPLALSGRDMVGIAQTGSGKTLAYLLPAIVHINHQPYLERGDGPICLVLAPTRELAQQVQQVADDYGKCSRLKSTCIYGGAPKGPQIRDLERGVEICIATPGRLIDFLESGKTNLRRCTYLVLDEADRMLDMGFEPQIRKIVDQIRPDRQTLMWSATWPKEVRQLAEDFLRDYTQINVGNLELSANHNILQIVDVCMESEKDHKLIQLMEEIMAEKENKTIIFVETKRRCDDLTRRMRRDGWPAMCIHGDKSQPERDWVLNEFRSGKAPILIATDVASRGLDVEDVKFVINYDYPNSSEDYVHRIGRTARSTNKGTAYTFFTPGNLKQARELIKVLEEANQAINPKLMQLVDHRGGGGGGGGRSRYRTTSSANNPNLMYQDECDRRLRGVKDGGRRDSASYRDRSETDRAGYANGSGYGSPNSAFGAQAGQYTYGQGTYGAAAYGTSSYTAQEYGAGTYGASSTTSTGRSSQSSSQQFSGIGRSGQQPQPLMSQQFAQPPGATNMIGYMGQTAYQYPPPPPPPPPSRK
UniProt Q6UWP2: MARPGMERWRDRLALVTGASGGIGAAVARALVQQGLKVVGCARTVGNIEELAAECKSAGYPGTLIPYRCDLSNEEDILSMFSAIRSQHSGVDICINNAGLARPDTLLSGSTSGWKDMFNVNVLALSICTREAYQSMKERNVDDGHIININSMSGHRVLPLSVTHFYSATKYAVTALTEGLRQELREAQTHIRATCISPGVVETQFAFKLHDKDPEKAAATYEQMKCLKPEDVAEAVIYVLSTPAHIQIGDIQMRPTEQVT
UniProt Q08495: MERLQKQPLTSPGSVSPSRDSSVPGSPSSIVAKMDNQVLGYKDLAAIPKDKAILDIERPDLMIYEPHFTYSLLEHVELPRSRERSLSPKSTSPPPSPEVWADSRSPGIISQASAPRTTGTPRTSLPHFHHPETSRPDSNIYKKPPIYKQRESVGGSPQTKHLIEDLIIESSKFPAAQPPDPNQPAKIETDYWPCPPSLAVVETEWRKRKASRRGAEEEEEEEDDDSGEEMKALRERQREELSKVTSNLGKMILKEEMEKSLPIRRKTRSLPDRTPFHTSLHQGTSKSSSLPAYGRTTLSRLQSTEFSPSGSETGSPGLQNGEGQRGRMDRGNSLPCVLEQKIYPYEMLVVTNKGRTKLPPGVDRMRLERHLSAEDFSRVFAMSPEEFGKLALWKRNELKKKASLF
UniProt O60884: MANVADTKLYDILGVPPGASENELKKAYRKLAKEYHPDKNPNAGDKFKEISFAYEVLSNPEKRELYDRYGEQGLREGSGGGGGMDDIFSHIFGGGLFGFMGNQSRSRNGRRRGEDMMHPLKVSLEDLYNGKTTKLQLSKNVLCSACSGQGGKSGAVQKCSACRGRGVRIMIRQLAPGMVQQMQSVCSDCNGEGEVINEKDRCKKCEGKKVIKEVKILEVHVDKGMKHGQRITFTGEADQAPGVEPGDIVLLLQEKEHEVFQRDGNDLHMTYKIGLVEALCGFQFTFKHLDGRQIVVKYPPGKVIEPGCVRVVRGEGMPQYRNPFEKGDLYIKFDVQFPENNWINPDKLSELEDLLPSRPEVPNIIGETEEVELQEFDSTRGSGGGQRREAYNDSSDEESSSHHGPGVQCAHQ
UniProt Q7L2E3: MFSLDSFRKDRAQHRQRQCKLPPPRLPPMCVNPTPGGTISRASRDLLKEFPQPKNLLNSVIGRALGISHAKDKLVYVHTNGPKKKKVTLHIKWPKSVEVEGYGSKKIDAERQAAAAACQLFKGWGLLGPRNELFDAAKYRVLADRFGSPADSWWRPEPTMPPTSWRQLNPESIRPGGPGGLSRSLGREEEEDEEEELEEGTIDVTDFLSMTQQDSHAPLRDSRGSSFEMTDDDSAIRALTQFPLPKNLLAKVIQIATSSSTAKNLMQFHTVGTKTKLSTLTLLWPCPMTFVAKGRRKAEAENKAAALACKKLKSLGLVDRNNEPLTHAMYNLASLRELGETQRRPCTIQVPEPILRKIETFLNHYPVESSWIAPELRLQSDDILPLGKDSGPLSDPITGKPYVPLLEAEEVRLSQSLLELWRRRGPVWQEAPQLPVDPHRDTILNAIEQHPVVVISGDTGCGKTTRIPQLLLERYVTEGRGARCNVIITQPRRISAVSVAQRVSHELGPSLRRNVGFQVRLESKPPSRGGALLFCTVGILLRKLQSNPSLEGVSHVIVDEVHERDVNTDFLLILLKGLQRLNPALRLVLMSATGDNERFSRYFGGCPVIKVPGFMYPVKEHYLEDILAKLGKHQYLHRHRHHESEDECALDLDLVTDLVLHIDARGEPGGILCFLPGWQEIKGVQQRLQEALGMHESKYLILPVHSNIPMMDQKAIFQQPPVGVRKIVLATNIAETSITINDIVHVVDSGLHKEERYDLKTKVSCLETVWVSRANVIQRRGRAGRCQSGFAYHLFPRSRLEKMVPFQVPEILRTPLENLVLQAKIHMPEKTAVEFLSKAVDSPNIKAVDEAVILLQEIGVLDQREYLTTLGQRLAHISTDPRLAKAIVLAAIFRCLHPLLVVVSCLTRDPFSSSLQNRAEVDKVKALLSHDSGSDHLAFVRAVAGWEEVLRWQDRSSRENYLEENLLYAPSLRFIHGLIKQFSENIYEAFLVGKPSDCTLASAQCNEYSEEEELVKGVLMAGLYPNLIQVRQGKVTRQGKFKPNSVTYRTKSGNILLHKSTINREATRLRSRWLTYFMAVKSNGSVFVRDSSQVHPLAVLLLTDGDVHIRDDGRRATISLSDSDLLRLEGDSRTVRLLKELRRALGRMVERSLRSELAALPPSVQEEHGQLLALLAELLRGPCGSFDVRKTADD
UniProt Q13838, whole entry, looked up: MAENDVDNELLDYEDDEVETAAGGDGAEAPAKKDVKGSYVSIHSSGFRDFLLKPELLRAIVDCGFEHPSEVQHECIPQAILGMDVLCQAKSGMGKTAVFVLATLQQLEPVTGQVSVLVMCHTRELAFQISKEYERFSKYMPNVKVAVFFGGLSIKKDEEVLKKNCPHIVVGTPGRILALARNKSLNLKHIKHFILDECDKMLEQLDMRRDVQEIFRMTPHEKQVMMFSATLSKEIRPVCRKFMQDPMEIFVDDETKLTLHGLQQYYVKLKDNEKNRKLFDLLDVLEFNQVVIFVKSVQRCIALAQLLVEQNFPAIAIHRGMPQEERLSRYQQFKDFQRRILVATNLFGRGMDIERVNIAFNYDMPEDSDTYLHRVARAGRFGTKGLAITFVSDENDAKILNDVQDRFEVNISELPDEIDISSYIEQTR
UniProt P0CG22: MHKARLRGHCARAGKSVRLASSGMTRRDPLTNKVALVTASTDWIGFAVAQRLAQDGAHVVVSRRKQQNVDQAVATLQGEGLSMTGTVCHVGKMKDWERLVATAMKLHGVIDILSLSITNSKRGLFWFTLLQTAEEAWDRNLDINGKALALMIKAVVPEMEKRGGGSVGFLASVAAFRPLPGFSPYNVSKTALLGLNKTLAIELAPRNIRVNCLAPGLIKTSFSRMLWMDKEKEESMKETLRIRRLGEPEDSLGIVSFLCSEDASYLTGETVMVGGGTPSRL
UniProt P98153: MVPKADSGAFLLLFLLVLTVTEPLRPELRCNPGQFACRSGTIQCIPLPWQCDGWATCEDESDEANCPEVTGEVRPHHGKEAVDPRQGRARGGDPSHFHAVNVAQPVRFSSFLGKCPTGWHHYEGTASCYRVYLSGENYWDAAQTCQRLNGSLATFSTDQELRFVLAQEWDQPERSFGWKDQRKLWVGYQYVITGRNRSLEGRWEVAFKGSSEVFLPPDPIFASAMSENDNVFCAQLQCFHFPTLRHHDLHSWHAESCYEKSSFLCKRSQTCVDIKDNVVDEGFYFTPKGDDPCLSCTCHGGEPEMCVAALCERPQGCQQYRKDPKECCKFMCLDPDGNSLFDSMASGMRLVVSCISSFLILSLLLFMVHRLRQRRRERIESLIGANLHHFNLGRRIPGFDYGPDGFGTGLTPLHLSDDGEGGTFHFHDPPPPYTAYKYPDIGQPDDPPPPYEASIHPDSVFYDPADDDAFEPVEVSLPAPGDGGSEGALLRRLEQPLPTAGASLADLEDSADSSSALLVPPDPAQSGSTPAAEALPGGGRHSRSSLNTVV
UniProt Q12959, whole entry, looked up: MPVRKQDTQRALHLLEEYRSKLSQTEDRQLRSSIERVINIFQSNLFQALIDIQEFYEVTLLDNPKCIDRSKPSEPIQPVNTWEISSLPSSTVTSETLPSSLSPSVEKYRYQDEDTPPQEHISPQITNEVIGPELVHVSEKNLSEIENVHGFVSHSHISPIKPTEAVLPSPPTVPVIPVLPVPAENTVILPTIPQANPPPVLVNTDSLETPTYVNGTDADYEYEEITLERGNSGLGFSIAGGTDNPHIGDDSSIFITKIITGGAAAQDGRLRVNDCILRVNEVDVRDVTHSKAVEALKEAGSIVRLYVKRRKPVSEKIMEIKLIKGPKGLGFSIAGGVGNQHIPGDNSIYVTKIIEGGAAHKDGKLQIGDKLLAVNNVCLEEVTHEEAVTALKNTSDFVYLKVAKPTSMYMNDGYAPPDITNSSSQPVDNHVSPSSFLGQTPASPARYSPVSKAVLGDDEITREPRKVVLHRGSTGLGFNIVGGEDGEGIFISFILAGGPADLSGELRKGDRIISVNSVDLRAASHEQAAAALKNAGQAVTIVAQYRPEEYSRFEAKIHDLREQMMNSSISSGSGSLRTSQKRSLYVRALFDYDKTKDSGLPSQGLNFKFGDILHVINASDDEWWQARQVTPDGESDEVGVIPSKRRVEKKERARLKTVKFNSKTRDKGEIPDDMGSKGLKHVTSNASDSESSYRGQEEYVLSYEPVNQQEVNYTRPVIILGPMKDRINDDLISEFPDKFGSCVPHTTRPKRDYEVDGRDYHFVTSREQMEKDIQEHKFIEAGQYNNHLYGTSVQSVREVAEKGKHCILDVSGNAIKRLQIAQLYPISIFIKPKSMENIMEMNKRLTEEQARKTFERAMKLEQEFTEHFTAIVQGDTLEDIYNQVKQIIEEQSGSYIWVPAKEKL
UniProt Q9NUU7: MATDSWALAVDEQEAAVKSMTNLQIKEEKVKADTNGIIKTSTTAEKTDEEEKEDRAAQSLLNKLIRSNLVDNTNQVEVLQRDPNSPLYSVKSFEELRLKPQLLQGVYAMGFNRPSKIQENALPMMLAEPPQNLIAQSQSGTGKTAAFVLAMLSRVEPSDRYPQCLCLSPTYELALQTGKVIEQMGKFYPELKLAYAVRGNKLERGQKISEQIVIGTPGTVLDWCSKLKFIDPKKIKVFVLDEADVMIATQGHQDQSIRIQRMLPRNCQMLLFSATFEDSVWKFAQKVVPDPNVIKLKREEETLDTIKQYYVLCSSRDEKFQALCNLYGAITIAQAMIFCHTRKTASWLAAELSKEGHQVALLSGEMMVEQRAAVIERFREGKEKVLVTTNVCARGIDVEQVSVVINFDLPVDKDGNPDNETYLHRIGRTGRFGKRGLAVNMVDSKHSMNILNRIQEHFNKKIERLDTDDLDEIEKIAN

Experiments:
Assay in all cases: log2 fold change, soluble protein after heating vs DMSO (PISA); higher = thermal stabilisation; K562 cells, 10 uM, 30 min; active = over 0.2 and 3.5 SD of the protein, either way, in both replicates (recomputed)
[1] = compound: CC1=C(C=C(C=C1)NC(=O)C2=CC(=CC=C2)C(C)(C)C#N)NC3=CC4=C(C=C3)N=CN(C4=O)C
Method in brief: (§1)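 K562 cells at 2×10^6 cells/mL were exposed to 10 μM compound for 30 min, then aliquots were heated for 3 min across 48°C-58°C, pooled, and extracted in PBS containing 0.5% NP-40 at 4°C. The supernatant after 21,000xg for 90 min was taken as soluble protein and measured by TMTpro 16plex LC-MS/MS with channel sums equalised. Thermal stability is reported relative to control samples, with values from duplicates. Fold changes are given on a log2 scale.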

[2] = compound: CC1=C(C=C(C=C1)NC(=O)C2=CC(=CC=C2)N(C)C)NC(=O)C3=CC=C(C=C3)O
Method in brief: as §1

[3] = compound: CC1=CC=C(C=C1)SC2=C3C=C(SC3=CN=C2)C(=O)N
Method in brief: as §1

[4] = compound: CC1=NC(=CC=C1)C2=C(N=C(N2)C(C)(C)C)C3=CC4=NC=CN=C4C=C3
Method in brief: as §1

Nexturastat A = compound: CCCCN(Cc1ccc(C(=O)NO)cc1)C(=O)Nc1ccccc1 [Nexturastat A]
Method in brief: as §1

vemurafenib = compound: CCCS(=O)(=O)Nc1ccc(F)c(C(=O)c2c[nH]c3ncc(-c4ccc(Cl)cc4)cc23)c1F [vemurafenib]
Method in brief: as §1

[5] = compound: CCCS(=O)(=O)Nc1ccc(F)c(C(=O)c2c[nH]c3ncc(Cl)cc23)c1F
Method in brief: as §1

[6] = compound: CCCc1cc(C)[nH]c(=O)c1CNC(=O)c1cc(-c2ccnc(N3CCN(C)CC3)c2)cc2c1cnn2C(C)C
Method in brief: as §1

givinostat = compound: CCN(CC)Cc1ccc2cc(COC(=O)Nc3ccc(C(=O)NO)cc3)ccc2c1 [givinostat]
Method in brief: as §1

barasertib = compound: CCN(CCCOc1ccc2c(Nc3cc(CC(=O)Nc4cccc(F)c4)[nH]n3)ncnc2c1)CCOP(=O)(O)O [barasertib]
Method in brief: as §1

[7] = compound: CC[C@@H]1C(=O)N(C)c2cnc(Nc3ccc(C(=O)NC4CCN(C)CC4)cc3OC)nc2N1C1CCCC1
Method in brief: as §1

volasertib = compound: CC[C@@H]1C(=O)N(C)c2cnc(Nc3ccc(C(=O)N[C@H]4CC[C@H](N5CCN(CC6CC6)CC5)CC4)cc3OC)nc2N1C(C)C [volasertib]
Method in brief: as §1

[8] = compound: CC[C@H](C)N1C=C(C2=C(C=C(C=C21)C3=CN=C(C=C3)N4CCNCC4)C(=O)NCC5=C(C=C(NC5=O)C)C)C
Method in brief: as §1

epoxomicin = compound: CC[C@H](C)[C@@H](C(=O)N[C@@H]([C@@H](C)O)C(=O)N[C@@H](CC(C)C)C(=O)[C@]1(CO1)C)NC(=O)[C@H]([C@@H](C)CC)N(C)C(=O)C [epoxomicin]
Method in brief: as §1

[9] = compound: CCn1c(C(=O)N(C2CC2)C2CC2)cc2c3c(ncn3C)c(Nc3cc(C)n(C)n3)nc21
Method in brief: as §1

[10] = compound: CCn1cc(-c2ccnc3[nH]c(-c4cccc(CN(C)C)c4)cc23)c(-c2ccc(NC(=O)N(C)C)cc2)n1
Method in brief: as §1

[11] = compound: CN(C)CC(=O)Nc1ccc2[nH]c(=O)c3ccccc3c2c1
Method in brief: as §1

rosiglitazone = compound: CN(CCOC1=CC=C(C=C1)C[C@H]2C(=O)NC(=O)S2)C3=CC=CC=N3 (racemic) [rosiglitazone]
Method in brief: as §1

[12] = compound: CN1C2=C(C3=C1C(=O)N(N=C3)CC4=CC(=CC=C4)N)SC(=C2)S(=O)C
Method in brief: as §1

[13] = compound: CN1CCC(CNc2ccc3ncc(-c4cccc(OC(F)(F)F)c4)n3n2)CC1
Method in brief: as §1

Measured: log2 fold change

DIMT1 (UniProt Q9UNQ2)
inactive: [1] 0.013 | [2] -0.025 | [3] -0.038 | [4] -0.087 | Nexturastat A 0.216 | vemurafenib -0.092 | [5] -0.017 | [6] 0.081 | givinostat -0.007 | barasertib -0.127 | [7] 0.171 | volasertib 0.261 | [8] -0.015 | epoxomicin -0.208 | [9] 0.01 | [10] 0.124 | [11] -0.106 | rosiglitazone -0.113 | [12] 0.2 | [13] 0.174

DLG2 isoform 2 (UniProt Q15700)
inactive: [1] 0.033 | [2] -0.013 | [3] 0.043 | [4] 0.022 | Nexturastat A 0.011 | vemurafenib 0.022 | [5] 0.042 | [6] 0.329 | givinostat 0.048 | barasertib 0.118 | [7] 0.055 | volasertib -0.106 | [8] 0.004 | epoxomicin 0.033 | [9] 0.059 | [10] -0.015 | [11] -0.001 | rosiglitazone 0.233 | [12] 0.05 | [13] -0.165

DMD (UniProt P11532)
inactive: [1] -0.004 | [2] 0.015 | [3] 0.014 | [4] -0.026 | Nexturastat A -0.073 | vemurafenib 0.041 | [5] 0.061 | [6] -0.023 | givinostat 0.028 | barasertib 0.038 | [7] -0.034 | volasertib -0.097 | [8] 0.036 | epoxomicin 0.01 | [9] 0.005 | [10] -0.019 | [11] 0.017 | rosiglitazone 0.03 | [12] -0.071 | [13] -0.006

DFFA (UniProt O00273)
inactive: [1] -0.009 | [2] 0.009 | [3] -0.007 | [4] 0.043 | Nexturastat A -0.043 | vemurafenib 0.01 | [5] -0.005 | [6] 0.024 | givinostat -0.022 | barasertib 0.008 | [7] -0.012 | volasertib -0.033 | [8] -0.021 | epoxomicin 0.03 | [9] 0.01 | [10] -0.017 | [11] 0.008 | rosiglitazone 0.012 | [12] -0.061 | [13] -0.051

DDX17 (UniProt Q92841)
inactive: [1] 0.059 | [2] -0.065 | [3] -0.046 | [4] 0.047 | Nexturastat A 0.064 | vemurafenib 0.053 | [5] 0.081 | [6] 0.006 | givinostat 0.059 | barasertib 0.009 | [7] -0.068 | volasertib -0.127 | [8] 0.047 | epoxomicin 0.043 | [9] -0.046 | [10] -0.036 | [11] 0.035 | rosiglitazone 0.005 | [12] 0.021 | [13] 0.14

DHRS11 (UniProt Q6UWP2)
inactive: [1] 0.003 | [2] -0.002 | [3] -0.026 | [4] 0.022 | Nexturastat A -0.044 | vemurafenib 0.016 | [5] 0.021 | [6] -0.023 | givinostat 0.035 | barasertib -0.016 | [7] 0.021 | volasertib 0.056 | [8] 0.004 | epoxomicin 0.003 | [9] -0.019 | [10] -0.061 | [11] 0.025 | rosiglitazone 0.037 | [12] -0.109 | [13] -0.016

DMTN (UniProt Q08495)
inactive: [1] -0.04 | [2] 0.018 | [3] 0.023 | [4] -0.008 | Nexturastat A -0.021 | vemurafenib 0.02 | [5] 0.006 | [6] -0.005 | givinostat -0.003 | barasertib 0.009 | [7] -0.058 | volasertib -0.046 | [8] -0.01 | epoxomicin 0.016 | [9] 0.004 | [10] -0.063 | [11] 0.013 | rosiglitazone 0.014 | [12] -0.022 | [13] -0.036

DNAJA2 (UniProt O60884)
inactive: [1] -0.014 | [2] -0.054 | [3] -0.011 | [4] 0.011 | Nexturastat A -0.054 | vemurafenib -0.014 | [5] 0 | [6] -0.022 | givinostat -0.035 | barasertib -0.003 | [7] -0.009 | volasertib -0.076 | [8] 0.033 | epoxomicin 0.026 | [9] -0.05 | [10] -0.047 | [11] -0.004 | rosiglitazone 0.024 | [12] -0.036 | [13] -0.013

DHX30 isoform 2 (UniProt Q7L2E3)
inactive: [1] 0.02 | [2] 0.012 | [3] -0.034 | [4] 0.01 | Nexturastat A 0.332 | vemurafenib -0.06 | [5] -0.012 | [6] 0.009 | givinostat 0.023 | barasertib -0.077 | [7] 0.019 | volasertib 0.057 | [8] 0.004 | epoxomicin -0.189 | [9] 0.03 | [10] 0.118 | [11] -0.063 | rosiglitazone -0.093 | [12] 0.243 | [13] -0.035

DDX39B isoform 2 (UniProt Q13838)
inactive: [1] 0.003 | [2] -0.006 | [3] -0.006 | [4] 0.003 | Nexturastat A 0.006 | vemurafenib 0 | [5] 0.002 | [6] -0.044 | givinostat -0.034 | barasertib -0.05 | [7] 0.059 | volasertib 0.063 | [8] -0.004 | epoxomicin -0.048 | [9] 0.004 | [10] 0.073 | [11] -0.039 | rosiglitazone -0.017 | [12] 0.028 | [13] 0.135

DHRS4L1 (UniProt P0CG22)
inactive: [1] -0.007 | [2] -0.021 | [3] 0.017 | [4] 0.052 | Nexturastat A -0.076 | vemurafenib -0.049 | [5] -0.025 | [6] -0.03 | givinostat -0.016 | barasertib -0.036 | [7] 0.08 | volasertib 0.076 | [8] -0.057 | epoxomicin -0.011 | [9] 0.106 | [10] 0.038 | [11] -0.034 | rosiglitazone 0.024 | [12] -0.027 | [13] 0.047

DHX29 (UniProt Q7Z478)
inactive: [1] 0.025 | [2] -0.013 | [3] -0.097 | [4] -0.117 | Nexturastat A 0.141 | vemurafenib -0.034 | [5] 0.002 | [6] 0.059 | givinostat 0.04 | barasertib -0.102 | [7] 0.082 | volasertib 0.029 | [8] 0.045 | epoxomicin -0.176 | [9] 0.01 | [10] 0.038 | [11] -0.008 | rosiglitazone -0.069 | [12] 0.141 | [13] 0.13

DENND4C isoform 7 (UniProt Q5VZ89)
inactive: [1] 0.098 | [2] 0 | [3] 0.038 | [4] -0.036 | Nexturastat A 0.05 | vemurafenib 0.058 | [5] 0.045 | [6] -0.019 | givinostat 0.115 | barasertib 0.027 | [7] 0.025 | volasertib -0.135 | [8] 0.186 | epoxomicin -0.038 | [9] -0.123 | [10] -0.031 | [11] 0.081 | rosiglitazone 0.148 | [12] 0.115 | [13] -0.171

DGCR2 (UniProt P98153)
inactive: [1] 0.012 | [2] 0.021 | [3] 0.029 | [4] -0.02 | Nexturastat A -0.078 | vemurafenib 0 | [5] -0.065 | [6] -0.016 | givinostat -0.031 | barasertib -0.011 | [7] -0.11 | volasertib -0.036 | [8] -0.027 | epoxomicin 0.016 | [9] -0.016 | [10] -0.045 | [11] 0.038 | rosiglitazone -0.044 | [12] -0.009 | [13] -0.004

DLG1 isoform 2 (UniProt Q12959)
inactive: [1] -0.026 | [2] -0.055 | [3] -0.003 | [4] 0.006 | Nexturastat A -0.006 | vemurafenib 0.004 | [5] 0.073 | [6] 0.124 | givinostat 0.025 | barasertib -0.01 | [7] -0.187 | volasertib -0.125 | [8] 0.04 | epoxomicin 0.036 | [9] -0.042 | [10] 0.061 | [11] -0.005 | rosiglitazone 0.005 | [12] 0.025 | [13] 0.038

Quoted from above (two entries):
DHX29 (UniProt Q7Z478)
inactive: [1] 0.025 | [2] -0.013 | [3] -0.097 | [4] -0.117 | Nexturastat A 0.141 | vemurafenib -0.034 | [5] 0.002 | [6] 0.059 | givinostat 0.04 | barasertib -0.102 | [7] 0.082 | volasertib 0.029 | [8] 0.045 | epoxomicin -0.176 | [9] 0.01 | [10] 0.038 | [11] -0.008 | rosiglitazone -0.069 | [12] 0.141 | [13] 0.13

DENND4C isoform 7 (UniProt Q5VZ89)
inactive: [1] 0.098 | [2] 0 | [3] 0.038 | [4] -0.036 | Nexturastat A 0.05 | vemurafenib 0.058 | [5] 0.045 | [6] -0.019 | givinostat 0.115 | barasertib 0.027 | [7] 0.025 | volasertib -0.135 | [8] 0.186 | epoxomicin -0.038 | [9] -0.123 | [10] -0.031 | [11] 0.081 | rosiglitazone 0.148 | [12] 0.115 | [13] -0.171

Carrying on:

DDX19A (UniProt Q9NUU7)
inactive: [1] -0.031 | [2] -0.034 | [3] 0.023 | [4] 0.014 | Nexturastat A 0.032 | vemurafenib 0.014 | [5] 0.142 | [6] 0.009 | givinostat 0.023 | barasertib 0.016 | [7] -0.074 | volasertib -0.244 | [8] 0.036 | epoxomicin 0.025 | [9] 0.034 | [10] 0.002 | [11] 0.003 | rosiglitazone 0.022 | [12] -0.05 | [13] -0.069
